{
  "source": "paper PMC9785231",
  "about": "“Synthesis and Pharmacological Evaluation of Enantiopure N-Substituted Ortho-c Oxide-Bridged 5-Phenylmorphans” (Molecules, 2022)",
  "key": {"[1]": {"assay": "Microsomal metabolic stability, mouse liver microsomes"}, "[2]": {"assay": "Microsomal metabolic stability, human liver microsomes"}, "in vitro": {"assay": "in vitro", "details": "mouse, microsomes"}},
  "data": [
    {"smiles": "CCCNCC(O)COc1ccccc1C(=O)CCc1ccccc1", "note": "(stereo not drawn) [Propafenone]", "values": [
      {"measurement": "Remaining (NCF = 60 min)", "setting": "[1]; MLM 0.5, no co-factor (no NADPH)", "value": 105.6, "unit": "%"},
      {"measurement": "Remaining (T = 60 min)", "setting": "[1]; MLM 0.5, with NADPH", "value": 0.0, "unit": "%"},
      {"measurement": "Remaining (NCF = 60 min)", "setting": "[2]; HLM 0.5, no co-factor (no NADPH)", "value": 95.8, "unit": "%"},
      {"measurement": "Remaining (T = 60 min)", "setting": "[2]; HLM 0.5, with NADPH", "value": 0.1, "unit": "%"},
      {"measurement": "CLint scaled", "setting": "in vitro", "value": 187, "unit": "L/h/kg"},
      {"measurement": "microsomal CLint", "setting": "in vitro", "value": 789, "unit": "µL/min/mg"}
    ]}
  ]
}
